For 23 targets, log2 fold change results are on record in the supplement of paper PMC10849652.

Amino acid sequences for entries named in this document (tags omitted). A change or cut given only in a name is not applied to a line headed by its entry.
UniProt O94762: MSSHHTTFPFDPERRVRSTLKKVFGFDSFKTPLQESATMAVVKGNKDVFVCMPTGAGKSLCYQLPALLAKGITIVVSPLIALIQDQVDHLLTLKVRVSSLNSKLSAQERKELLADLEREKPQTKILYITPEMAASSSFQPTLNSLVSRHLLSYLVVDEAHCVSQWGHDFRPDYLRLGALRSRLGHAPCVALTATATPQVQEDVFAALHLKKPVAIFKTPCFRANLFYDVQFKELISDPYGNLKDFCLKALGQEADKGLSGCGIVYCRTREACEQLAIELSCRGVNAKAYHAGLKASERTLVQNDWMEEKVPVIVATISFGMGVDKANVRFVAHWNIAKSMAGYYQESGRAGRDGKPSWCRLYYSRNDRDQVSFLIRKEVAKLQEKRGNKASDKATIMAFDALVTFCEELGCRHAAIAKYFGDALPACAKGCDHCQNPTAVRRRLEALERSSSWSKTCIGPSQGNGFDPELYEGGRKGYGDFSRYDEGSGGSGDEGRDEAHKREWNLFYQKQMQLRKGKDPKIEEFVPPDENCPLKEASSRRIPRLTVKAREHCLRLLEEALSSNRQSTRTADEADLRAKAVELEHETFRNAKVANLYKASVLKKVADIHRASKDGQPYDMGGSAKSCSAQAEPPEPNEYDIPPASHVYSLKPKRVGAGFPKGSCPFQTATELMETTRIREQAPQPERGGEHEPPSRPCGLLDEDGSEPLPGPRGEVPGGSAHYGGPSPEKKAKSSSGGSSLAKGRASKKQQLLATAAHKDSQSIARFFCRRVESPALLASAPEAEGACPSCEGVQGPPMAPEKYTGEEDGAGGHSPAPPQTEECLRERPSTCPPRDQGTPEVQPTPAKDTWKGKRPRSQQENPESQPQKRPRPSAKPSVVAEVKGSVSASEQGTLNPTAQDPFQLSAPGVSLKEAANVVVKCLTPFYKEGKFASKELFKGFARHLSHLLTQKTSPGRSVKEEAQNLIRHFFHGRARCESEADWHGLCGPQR
UniProt P18754: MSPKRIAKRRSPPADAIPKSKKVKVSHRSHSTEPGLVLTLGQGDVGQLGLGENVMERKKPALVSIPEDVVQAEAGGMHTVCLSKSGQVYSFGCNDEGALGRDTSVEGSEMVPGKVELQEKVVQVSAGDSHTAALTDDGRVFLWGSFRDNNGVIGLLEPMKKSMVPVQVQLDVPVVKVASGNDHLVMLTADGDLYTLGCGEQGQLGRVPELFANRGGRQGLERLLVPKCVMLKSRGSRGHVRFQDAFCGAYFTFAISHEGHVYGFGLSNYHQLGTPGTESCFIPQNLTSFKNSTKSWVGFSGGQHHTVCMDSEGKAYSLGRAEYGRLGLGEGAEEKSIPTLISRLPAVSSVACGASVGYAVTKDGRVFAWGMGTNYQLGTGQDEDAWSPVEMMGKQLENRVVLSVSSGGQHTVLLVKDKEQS
UniProt Q86VR2, whole entry, looked up: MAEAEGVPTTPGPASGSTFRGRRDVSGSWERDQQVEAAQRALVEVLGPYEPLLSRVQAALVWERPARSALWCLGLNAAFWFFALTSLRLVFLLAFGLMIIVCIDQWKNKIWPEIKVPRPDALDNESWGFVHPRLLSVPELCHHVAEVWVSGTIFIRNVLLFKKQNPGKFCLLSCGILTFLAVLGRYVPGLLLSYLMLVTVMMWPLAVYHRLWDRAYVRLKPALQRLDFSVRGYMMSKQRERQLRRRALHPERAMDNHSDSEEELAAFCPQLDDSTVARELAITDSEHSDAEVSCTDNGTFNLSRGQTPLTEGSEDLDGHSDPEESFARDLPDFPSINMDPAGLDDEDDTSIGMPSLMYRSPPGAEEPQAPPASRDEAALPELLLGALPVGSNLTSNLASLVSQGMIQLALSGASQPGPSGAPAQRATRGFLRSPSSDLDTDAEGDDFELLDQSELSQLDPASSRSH
UniProt P35251: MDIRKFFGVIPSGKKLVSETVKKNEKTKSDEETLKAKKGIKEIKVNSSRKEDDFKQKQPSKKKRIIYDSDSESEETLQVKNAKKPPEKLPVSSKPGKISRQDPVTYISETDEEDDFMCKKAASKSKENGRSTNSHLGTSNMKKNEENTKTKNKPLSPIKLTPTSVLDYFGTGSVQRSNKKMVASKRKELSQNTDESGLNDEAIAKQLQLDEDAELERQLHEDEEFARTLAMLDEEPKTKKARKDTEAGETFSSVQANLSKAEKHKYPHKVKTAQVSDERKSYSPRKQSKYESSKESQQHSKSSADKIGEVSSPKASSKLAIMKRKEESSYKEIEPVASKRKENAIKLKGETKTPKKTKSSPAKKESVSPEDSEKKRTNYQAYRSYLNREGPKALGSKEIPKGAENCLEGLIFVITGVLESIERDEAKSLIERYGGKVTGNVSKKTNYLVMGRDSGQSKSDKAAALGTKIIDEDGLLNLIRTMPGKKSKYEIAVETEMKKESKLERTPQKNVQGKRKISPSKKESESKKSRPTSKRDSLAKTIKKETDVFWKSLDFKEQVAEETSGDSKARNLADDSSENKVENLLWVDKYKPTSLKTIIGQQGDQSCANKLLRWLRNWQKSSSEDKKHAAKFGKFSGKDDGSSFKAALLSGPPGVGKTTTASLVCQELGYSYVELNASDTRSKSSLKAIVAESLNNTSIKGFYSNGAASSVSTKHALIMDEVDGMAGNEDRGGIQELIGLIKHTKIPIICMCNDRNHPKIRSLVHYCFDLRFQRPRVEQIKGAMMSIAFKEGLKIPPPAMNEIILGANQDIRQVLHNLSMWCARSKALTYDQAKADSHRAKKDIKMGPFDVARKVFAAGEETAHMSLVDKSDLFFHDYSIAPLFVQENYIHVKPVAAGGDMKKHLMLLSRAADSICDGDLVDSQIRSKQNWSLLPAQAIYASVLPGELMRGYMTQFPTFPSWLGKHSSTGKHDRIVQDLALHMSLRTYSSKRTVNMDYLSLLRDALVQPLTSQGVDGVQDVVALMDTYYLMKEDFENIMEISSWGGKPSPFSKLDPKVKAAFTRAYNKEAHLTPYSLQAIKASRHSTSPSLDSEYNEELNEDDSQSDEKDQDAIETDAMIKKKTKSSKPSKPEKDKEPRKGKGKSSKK
UniProt Q9P258, whole entry, looked up: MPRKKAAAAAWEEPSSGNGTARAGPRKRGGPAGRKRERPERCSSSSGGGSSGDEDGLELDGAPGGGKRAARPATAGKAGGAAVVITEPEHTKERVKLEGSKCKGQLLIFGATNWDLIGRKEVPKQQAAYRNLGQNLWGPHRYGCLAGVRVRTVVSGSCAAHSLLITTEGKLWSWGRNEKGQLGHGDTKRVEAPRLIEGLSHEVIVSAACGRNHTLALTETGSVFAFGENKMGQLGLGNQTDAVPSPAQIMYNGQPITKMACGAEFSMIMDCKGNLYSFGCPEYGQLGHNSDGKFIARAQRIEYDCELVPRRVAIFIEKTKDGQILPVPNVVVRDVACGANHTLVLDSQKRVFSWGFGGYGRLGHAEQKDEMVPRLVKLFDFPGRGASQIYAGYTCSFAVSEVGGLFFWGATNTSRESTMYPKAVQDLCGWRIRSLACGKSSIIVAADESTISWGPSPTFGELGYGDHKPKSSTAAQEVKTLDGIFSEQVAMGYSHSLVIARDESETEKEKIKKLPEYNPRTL
UniProt Q96HR9: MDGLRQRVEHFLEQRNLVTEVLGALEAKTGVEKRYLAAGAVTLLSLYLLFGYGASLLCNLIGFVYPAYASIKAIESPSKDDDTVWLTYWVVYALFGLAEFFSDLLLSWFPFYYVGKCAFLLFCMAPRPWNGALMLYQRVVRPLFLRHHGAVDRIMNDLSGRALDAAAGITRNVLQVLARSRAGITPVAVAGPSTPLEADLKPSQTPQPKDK
UniProt Q96IC2: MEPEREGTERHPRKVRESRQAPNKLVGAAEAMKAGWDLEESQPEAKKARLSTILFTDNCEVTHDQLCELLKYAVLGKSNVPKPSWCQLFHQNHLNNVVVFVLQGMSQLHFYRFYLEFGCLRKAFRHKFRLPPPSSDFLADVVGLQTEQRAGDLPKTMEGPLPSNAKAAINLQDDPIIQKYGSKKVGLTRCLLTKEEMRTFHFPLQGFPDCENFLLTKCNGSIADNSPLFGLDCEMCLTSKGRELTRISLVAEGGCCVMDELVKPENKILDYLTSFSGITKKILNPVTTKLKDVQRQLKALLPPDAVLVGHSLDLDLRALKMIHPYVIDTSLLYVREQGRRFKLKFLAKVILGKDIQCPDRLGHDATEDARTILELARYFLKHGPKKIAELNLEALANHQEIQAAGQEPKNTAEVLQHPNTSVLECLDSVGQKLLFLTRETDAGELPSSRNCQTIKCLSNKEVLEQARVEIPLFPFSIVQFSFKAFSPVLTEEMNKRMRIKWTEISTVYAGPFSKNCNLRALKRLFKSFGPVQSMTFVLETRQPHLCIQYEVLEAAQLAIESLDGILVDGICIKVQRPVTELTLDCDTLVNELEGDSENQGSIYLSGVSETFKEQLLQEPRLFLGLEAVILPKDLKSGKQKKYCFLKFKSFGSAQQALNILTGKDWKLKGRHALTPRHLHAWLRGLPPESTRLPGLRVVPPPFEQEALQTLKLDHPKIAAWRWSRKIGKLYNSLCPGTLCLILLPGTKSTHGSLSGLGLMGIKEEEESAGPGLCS
UniProt P06400: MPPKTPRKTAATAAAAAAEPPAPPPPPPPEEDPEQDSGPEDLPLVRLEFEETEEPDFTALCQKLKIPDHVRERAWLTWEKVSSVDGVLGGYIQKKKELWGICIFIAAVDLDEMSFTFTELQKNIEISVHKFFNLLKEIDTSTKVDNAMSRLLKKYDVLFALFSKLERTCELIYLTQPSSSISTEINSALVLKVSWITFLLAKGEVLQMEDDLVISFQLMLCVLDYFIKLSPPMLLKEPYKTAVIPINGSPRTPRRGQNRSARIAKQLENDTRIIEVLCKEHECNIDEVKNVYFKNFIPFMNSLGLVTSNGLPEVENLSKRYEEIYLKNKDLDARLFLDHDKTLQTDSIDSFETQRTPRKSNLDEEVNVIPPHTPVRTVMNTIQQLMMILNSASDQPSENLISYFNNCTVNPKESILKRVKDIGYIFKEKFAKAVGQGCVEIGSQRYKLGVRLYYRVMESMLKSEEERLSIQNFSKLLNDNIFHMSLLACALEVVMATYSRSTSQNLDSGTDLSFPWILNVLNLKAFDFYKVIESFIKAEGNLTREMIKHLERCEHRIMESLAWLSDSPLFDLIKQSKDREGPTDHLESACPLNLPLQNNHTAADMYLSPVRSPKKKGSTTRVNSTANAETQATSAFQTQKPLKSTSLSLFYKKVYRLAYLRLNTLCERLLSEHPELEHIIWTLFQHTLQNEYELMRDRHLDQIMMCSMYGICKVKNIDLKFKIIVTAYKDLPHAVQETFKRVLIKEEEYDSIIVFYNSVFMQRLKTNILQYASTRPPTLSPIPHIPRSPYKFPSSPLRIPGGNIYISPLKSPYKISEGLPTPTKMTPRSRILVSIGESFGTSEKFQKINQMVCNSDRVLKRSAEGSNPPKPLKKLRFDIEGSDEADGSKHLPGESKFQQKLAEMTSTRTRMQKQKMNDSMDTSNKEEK
UniProt Q96D15: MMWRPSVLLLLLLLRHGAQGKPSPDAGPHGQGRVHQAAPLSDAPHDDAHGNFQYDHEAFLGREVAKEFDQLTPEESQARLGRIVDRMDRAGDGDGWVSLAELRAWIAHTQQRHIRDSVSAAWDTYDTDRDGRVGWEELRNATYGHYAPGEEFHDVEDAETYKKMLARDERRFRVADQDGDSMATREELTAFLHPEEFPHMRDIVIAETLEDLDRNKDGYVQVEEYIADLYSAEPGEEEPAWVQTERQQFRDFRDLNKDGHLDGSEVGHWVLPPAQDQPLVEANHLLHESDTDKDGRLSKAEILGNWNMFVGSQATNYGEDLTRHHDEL
UniProt Q9Y3B8: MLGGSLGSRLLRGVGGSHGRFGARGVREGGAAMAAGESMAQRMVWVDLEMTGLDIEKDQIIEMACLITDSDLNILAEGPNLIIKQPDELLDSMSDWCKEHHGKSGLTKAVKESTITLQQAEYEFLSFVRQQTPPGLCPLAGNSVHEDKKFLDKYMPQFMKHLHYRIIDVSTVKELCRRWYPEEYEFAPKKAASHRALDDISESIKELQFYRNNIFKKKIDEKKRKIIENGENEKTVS
UniProt Q8IZV5: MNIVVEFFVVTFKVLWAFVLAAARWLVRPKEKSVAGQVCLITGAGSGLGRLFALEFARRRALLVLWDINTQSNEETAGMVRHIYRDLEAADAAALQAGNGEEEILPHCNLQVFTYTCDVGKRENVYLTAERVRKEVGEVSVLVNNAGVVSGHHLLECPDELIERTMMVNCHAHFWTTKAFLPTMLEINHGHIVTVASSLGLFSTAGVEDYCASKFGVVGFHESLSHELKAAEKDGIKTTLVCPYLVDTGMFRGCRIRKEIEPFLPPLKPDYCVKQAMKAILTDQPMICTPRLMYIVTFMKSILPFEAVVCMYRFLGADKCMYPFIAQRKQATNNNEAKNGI

The list shows a part of the results.

Compound in this test: c1ccc([C@@H]2C[C@H]2NC2CCNCC2)cc1
The test is described as follows: log2 fold change, soluble protein after heating vs DMSO (PISA); higher = thermal stabilisation; K562 lysate, 10 uM; active = over 0.2 and 3.5 SD of the protein, either way, in both replicates (recomputed). The essentials: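 Dounce homogenisation of K562 pellets in PBS pH 7.4 with 1 mM MgCl2 produced a crude extract, used at 1 mg/mL protein. Exposure to 10 μM compound lasted 30 min, and aliquots were then heated for 3 min across 48°C-58°C, pooled and brought to 0.5% NP-40 at 4°C. The supernatant after 21,000xg for 90 min was quantified by TMTpro 16plex LC-MS/MS with channel sums equalised. Duplicate values are given as log-two fold change in thermal stability relative to solvent controls.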
Regarding RBMY1E (UniProt A6NEQ0), the log2 fold change is inactive: -0.077. Next, RFC5 (UniProt P40937): inactive: 0.027.

RECQL5 (UniProt O94762): the log2 fold change was inactive: 0.064. Turning to RCC1 isoform 2 (UniProt P18754), the log2 fold change is inactive: 0.014. As for RBM5 (UniProt P52756), the log2 fold change was inactive: 0.103. For RDH13 (UniProt Q8NBN7), the log2 fold change was inactive: 0.021. As for RECQL (UniProt P46063), the figure is inactive: 0.035; as for REPIN1 isoform 4 (UniProt Q9BWE0), inactive: -0.019. As for RETREG3 (UniProt Q86VR2), the figure is inactive: -0.045; as for RAPGEF4 (UniProt Q8WZA2), inactive: -0.558; as for RELN (UniProt P78509), inactive: -0.036. Next, RFC1 (UniProt P35251): inactive: -0.018; RFWD3 (UniProt Q6PCD5): inactive: 0.049. Take RCC2 (UniProt Q9P258): the log2 fold change was inactive: 0.015.

Turning to REEP6 (UniProt Q96HR9), the log2 fold change was inactive: -0.181. As for REXO5 (UniProt Q96IC2), the figure is inactive: 0.091. As for RB1 (UniProt P06400), the figure is inactive: -0.012; as for RCN3 (UniProt Q96D15), inactive: 0.072; as for RBM42 (UniProt Q9BTD8), inactive: -0.006. Next, REXO2 (UniProt Q9Y3B8): inactive: 0; RDH10 (UniProt Q8IZV5): inactive: -0.06; RFT1 (UniProt Q96AA3): inactive: 0.07. On to RBM23 isoform 2 (UniProt Q86U06), for which the log2 fold change was inactive: -0.002.
